# From patent US12583824B2 (Genzyme Corporation, priority 2019, dated 2026)
# Sequences of proteins named here, by UniProt entry; tags and fusion partners are left off. A change or cut given only in a name is not applied to a line headed by its entry. A line that says so, or that is headed by a name, gives the form on record, which may keep a tag or linker.
# UniProt P13569, with tags, fused parts or gaps DEL508-508: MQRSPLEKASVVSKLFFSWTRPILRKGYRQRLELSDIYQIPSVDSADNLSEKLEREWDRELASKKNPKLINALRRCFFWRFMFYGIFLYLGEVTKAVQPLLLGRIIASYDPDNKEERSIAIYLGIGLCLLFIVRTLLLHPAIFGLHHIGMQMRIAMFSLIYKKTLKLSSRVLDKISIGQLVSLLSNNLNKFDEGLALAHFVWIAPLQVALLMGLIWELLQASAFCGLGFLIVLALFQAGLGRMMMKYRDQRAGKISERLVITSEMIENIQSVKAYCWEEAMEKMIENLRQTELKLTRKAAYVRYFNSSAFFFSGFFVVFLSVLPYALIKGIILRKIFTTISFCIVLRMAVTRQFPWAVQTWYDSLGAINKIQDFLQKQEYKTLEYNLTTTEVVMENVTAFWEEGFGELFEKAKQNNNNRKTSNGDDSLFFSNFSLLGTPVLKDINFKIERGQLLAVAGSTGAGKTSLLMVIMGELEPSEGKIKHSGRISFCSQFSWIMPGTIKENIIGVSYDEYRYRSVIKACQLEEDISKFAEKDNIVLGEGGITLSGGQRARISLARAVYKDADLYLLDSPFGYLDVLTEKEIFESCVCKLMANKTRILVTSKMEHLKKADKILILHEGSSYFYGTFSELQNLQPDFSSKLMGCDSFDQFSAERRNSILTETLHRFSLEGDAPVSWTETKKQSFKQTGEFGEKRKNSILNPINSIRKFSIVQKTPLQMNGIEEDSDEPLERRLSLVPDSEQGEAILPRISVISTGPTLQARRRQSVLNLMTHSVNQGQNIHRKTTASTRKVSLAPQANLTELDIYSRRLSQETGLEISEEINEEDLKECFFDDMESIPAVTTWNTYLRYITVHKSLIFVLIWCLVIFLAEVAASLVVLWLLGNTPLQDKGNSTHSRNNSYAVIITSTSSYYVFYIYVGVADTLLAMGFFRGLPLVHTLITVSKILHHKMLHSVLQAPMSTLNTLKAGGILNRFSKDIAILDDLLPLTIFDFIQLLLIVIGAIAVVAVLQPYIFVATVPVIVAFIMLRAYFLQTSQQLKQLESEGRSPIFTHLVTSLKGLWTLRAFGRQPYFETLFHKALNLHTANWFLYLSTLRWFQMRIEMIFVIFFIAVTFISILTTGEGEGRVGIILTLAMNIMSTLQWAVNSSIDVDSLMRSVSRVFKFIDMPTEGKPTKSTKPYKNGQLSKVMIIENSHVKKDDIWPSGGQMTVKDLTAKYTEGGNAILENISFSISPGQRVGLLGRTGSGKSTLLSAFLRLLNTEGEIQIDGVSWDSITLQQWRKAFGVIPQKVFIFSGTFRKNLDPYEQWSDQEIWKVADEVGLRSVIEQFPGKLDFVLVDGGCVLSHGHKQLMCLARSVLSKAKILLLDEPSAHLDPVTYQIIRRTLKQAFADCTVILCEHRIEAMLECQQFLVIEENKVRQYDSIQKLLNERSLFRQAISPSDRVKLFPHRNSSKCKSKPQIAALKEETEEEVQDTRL
# At least one compound was matched to its structure with a doubt left.
# Target: T1, CFTR in primary human bronchial epithelial cells from a ΔF508 homozygous CF donor (CF-HBE cells) (Homo sapiens, UniProt P13569, DEL508-508)
# T1 construct: Primary human bronchial epithelial cells from a ΔF508 homozygous CF donor; host or cells: primary human bronchial epithelial cells (CF-HBE), ΔF508 homozygous donor
# Experiment: TECC24 recording analysis of CFTR-mediated transepithelial chloride transport (AUC fold over DMSO)
# Format: cell-based
# Settings: 3 μM test agent, CF-HBE cells cultured 48 hours at 36.5° C.; ratio of test agent AUC of forskolin-stimulated IEQ divided by vehicle (DMSO) AUC
# Method: Example 31: TECC24 AUC Fold Over DMSO @ 3 μM
# The effects of a test agent on CFTR-mediated transepithelial chloride transport was measured using TECC24 recording analysis. Test agents were solubilized in DMSO. Solubilized test agents were mixed with incubation medium containing DMEM/F12, Ultroser G (2%; Crescent Chemical, catalog #67042), Hyclone Fetal Clone II (2%; GE Healthcare, catalog #SH30066.02), bovine brain extract (0.25%; Lonza, catalog #CC-4098), insulin (2.5 μg/mL), IL-13 (10 ng/mL), hydrocortisone (20 nM), transferrin (2.5 μg/mL), triiodothyronine (500 nM), ethanolamine (250 nM), epinephrine (1.5 μM), phosphoethanolamine (250 nM), and retinoic acid (10 nM). […]
# Following incubation, the transwell cell culture inserts containing the test agent or control-treated CF-HBE cells were loaded onto a TECC24 apparatus (TECC v7 or MTECC v2; EP Design) to record the transepithelial voltage (VT) and resistance (TEER) using 4 AgCl electrodes per well configured in current-clamp mode. […] The forskolin-stimulated Cl-transport was halted by addition of bumetanide (20 μM), an inhibitor of the basolateral chloride co-transporter NKCC1, to the bath to confirm that the detected signal was chloride dependent. […] Efficacy is expressed as the ratio of the test agent AUC divided by vehicle AUC. […]
structure (smiles),measurement,value
"CC(C)(C)COc1cc(-c2ccc(NS(=O)(=O)c3cccc(NS(C)(=O)=O)c3)nc2-c2ccc(C(F)(F)F)cc2)ccc1Cl [Example 18, N-(5-(4-chloro-3-(neopentyloxy)phenyl)-6-(4-(trifluoromethyl)phenyl)pyridin-2-yl)-3-(methylsulfonamido)benzenesulfonamide]",TECC24 AUC vs. DMSO (@3 μM),C (“C” refers to AUC < 2)
